# Data as given in PubChem BioAssay AID1224829 (NIAID, 2016)
# Aim: 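Follow-up of TLR4-NF-kappaB regulators using six separate siRNAs for each gene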 (follow-up of hits)
# System: mouse RAW264.7 G9 macrophage reporter cells
# Knock-down reagent: single siRNA against mouse genes, 100 nM
# Time to read-out: 2 days of siRNA knock-down, then 40 min of LPS before fixing
# Challenge: LPS (Salmonella minnesota R595) at 10 ng/ml
# Read-out: 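Imaging of GFP-p65 after 40 min of LPS; nuclear over perinuclear ring intensity ratio, scaled to plate median and non-targeting control wells, given as z-score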
# Direction: p65 translocation z-score and gene median z-score, per vendor: higher = more nuclear NF-kappaB p65 after LPS
# Active means: 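An siRNA is called active when the mean z-score of its two replicates is above 2 or below -2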
# Calls: active = changed p65 translocation (either direction); inactive = no clear change
# The deposit covers about 3,800 reagents; below is a part drawn at random. 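Calls cover raised and lowered translocation; gene median uses one vendor's three siRNAs; qiagen siRNAs acted more weakly than ambion siRNAs.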 Reagents against one gene are numbered here.
gene,reagent no.,siRNA vendor or control pool,"p65 translocation z-score, replicate mean","p65 translocation z-score, replicate 1","p65 translocation z-score, replicate 2","gene median z-score, per vendor",call
H2ac25,1,ambion single siRNA,2.12,2.52,1.72,0.0174,active
H2ac25,2,ambion single siRNA,0.0174,1.2,-1.17,0.0174,inactive
H2ac25,3,ambion single siRNA,-2.58,-2.62,-2.54,0.0174,active
H2ac25,4,qiagen single siRNA,3.34,3.31,3.36,0.434,active
H2ac25,5,qiagen single siRNA,-0.437,-0.563,-0.31,0.434,inactive
H2ac25,6,qiagen single siRNA,0.434,0.835,0.0332,0.434,inactive
Egfl7,1,ambion single siRNA,-1,0.0139,-2.02,-1.59,inactive
Egfl7,2,ambion single siRNA,-1.07,-1.17,-0.982,-1.59,inactive
Egfl7,3,ambion single siRNA,-4.08,-3.55,-4.61,-1.59,active
Egfl7,4,qiagen single siRNA,0.11,-0.416,0.636,-0.294,inactive
Egfl7,5,qiagen single siRNA,-1.51,-2.85,-0.172,-0.294,inactive
Egfl7,6,qiagen single siRNA,-0.191,1.25,-1.63,-0.294,inactive
Pcdhgc4,1,ambion single siRNA,-1.73,-1.14,-2.31,-0.879,inactive
Pcdhgc4,2,ambion single siRNA,-0.309,-0.614,-0.00387,-0.879,inactive
Pcdhgc4,3,ambion single siRNA,0.000735,1.24,-1.24,-0.879,inactive
Pcdhgc4,4,qiagen single siRNA,5.82,3.41,8.23,0.471,active
Pcdhgc4,5,qiagen single siRNA,0.471,-0.0954,1.04,0.471,inactive
Pcdhgc4,6,qiagen single siRNA,-1.32,-0.967,-1.68,0.471,inactive
Senp3,1,ambion single siRNA,-3.21,-3.85,-2.56,-1.59,active
Senp3,2,ambion single siRNA,1.57,3.52,-0.377,-1.59,inactive
Senp3,3,ambion single siRNA,-2.15,-0.614,-3.69,-1.59,active
Senp3,4,qiagen single siRNA,2.8,2.3,3.3,-1.61,active
Senp3,5,qiagen single siRNA,-1.62,-1.63,-1.61,-1.61,inactive
Senp3,6,qiagen single siRNA,-3.73,-3.73,,-1.61,active
Cacna2d1,1,ambion single siRNA,-1.13,-2.08,-0.188,-0.188,inactive
Cacna2d1,2,ambion single siRNA,1.47,0.637,2.31,-0.188,inactive
Cacna2d1,3,ambion single siRNA,-1.1,-1.1,,-0.188,inactive
Cacna2d1,4,qiagen single siRNA,2.88,2.57,3.2,1.48,active
Cacna2d1,5,qiagen single siRNA,0.785,0.0854,1.48,1.48,inactive
Cacna2d1,6,qiagen single siRNA,0.983,1.47,0.499,1.48,inactive
Sugp2,1,ambion single siRNA,-2.85,-3.65,-2.06,0.0664,active
Sugp2,2,ambion single siRNA,2.12,3.96,0.278,0.0664,active
Sugp2,3,ambion single siRNA,1.15,2.45,-0.145,0.0664,inactive
Sugp2,4,qiagen single siRNA,-0.0457,-0.469,0.378,0.378,inactive
Sugp2,5,qiagen single siRNA,2.01,1.1,2.91,0.378,active
Sugp2,6,qiagen single siRNA,-2.23,-2.23,,0.378,active
Or4c107,1,ambion single siRNA,-1.24,-0.195,-2.29,-0.797,inactive
Or4c107,2,ambion single siRNA,1.39,2.44,0.346,-0.797,inactive
Or4c107,3,ambion single siRNA,-1.84,-1.4,-2.28,-0.797,inactive
Or4c107,4,qiagen single siRNA,-1.24,0.0557,-2.53,-0.307,inactive
Or4c107,5,qiagen single siRNA,0.483,-1.78,2.75,-0.307,inactive
Or4c107,6,qiagen single siRNA,0.273,-0.669,1.22,-0.307,inactive
Cercam,1,ambion single siRNA,-0.00229,0.236,-0.241,-1.41,inactive
Cercam,2,ambion single siRNA,-2.75,-3.07,-2.42,-1.41,active
Cercam,3,ambion single siRNA,-1.41,-1.69,-1.13,-1.41,inactive
Cercam,4,qiagen single siRNA,0.989,0.151,1.83,-0.69,inactive
Cercam,5,qiagen single siRNA,-0.599,-1.53,0.334,-0.69,inactive
Cercam,6,qiagen single siRNA,-2.6,-2.51,-2.69,-0.69,active
Rdh1,1,ambion single siRNA,-2.09,-2.23,-1.94,-0.397,active
Rdh1,2,ambion single siRNA,-0.397,-0.742,-0.0527,-0.397,inactive
Rdh1,3,ambion single siRNA,0.101,0.147,0.0557,-0.397,inactive
Rdh1,4,qiagen single siRNA,-0.0508,-0.73,0.628,-0.0508,inactive
Rdh1,5,qiagen single siRNA,3.67,4.18,3.16,-0.0508,active
Rdh1,6,qiagen single siRNA,-1.12,-1.26,-0.98,-0.0508,inactive

Sorted by “p65 translocation z-score, replicate mean” (highest first): some entries from above
gene,reagent no.,siRNA vendor or control pool,"p65 translocation z-score, replicate mean","p65 translocation z-score, replicate 1","p65 translocation z-score, replicate 2","gene median z-score, per vendor",call
Egfl7,4,qiagen single siRNA,0.11,-0.416,0.636,-0.294,inactive
Egfl7,6,qiagen single siRNA,-0.191,1.25,-1.63,-0.294,inactive
Pcdhgc4,2,ambion single siRNA,-0.309,-0.614,-0.00387,-0.879,inactive
Egfl7,5,qiagen single siRNA,-1.51,-2.85,-0.172,-0.294,inactive
Pcdhgc4,1,ambion single siRNA,-1.73,-1.14,-2.31,-0.879,inactive
